Measurements taken from PubChem BioAssay AID1439 (NMMLSC, 2008).
About 770 (0.35%) of roughly 220,000 compounds were called active. Inconclusive results, whose numbers are uncertain, are shown with a selection of clear calls. No stated cut-off is given here; in the data, active means binding response below about 49% or above about 150%; inconclusive means no clear call, values can overlap the other calls; inactive means in between.

By UniProt entry, the sequences of proteins in these tests, tags left out.
UniProt P09471, whole entry, looked up: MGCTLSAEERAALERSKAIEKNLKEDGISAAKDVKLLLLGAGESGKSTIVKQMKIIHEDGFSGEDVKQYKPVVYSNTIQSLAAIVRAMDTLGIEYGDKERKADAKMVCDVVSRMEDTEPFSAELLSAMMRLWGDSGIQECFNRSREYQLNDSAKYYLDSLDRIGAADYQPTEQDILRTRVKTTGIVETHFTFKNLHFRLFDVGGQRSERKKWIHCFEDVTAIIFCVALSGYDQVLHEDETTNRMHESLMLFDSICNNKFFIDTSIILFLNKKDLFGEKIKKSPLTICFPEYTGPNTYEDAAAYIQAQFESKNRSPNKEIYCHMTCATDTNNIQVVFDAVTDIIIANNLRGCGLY

target: Guanine nucleotide-binding protein G(o) subunit alpha (Homo sapiens) (UniProt P09471); experiment: RGS7-Galphao binding modulators, primary screen, biochemical, multiplexed bead flow cytometry (AID 1439); conditions: at 10 µM, actives lie on both sides;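 further: fluorescent Galphao held in activated GDP-AlF4 state binding bead-coupled RGS7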

Row | Structure (SMILES) | binding response (% of control)
1 | COc1cccc(CNCCO)c1OCc1ccccc1 | inconclusive: 94.5%
2 | CC(=O)N1CCc2c(sc(NC(=O)CN3C(=O)c4ccccc4C3=O)c2C(N)=O)C1 | active: 157% [activator]
3 | CC1CCc2nc(/C(C#N)=C/c3ccncc3)sc2C1 (centres undefined) | inconclusive: 84.4%
4 | CCNc1nc(NCC)n2c(SC(C(=O)Nc3cc(Cl)cc(Cl)c3)c3ccccc3)nnc2n1 (centres undefined) | inactive: 104%
5 | CCN(Cc1cnn(C)c1)C(=O)c1cc(COc2ccc(F)cc2F)on1 | inconclusive: 105%
6 | Cc1cc(NC(=O)CN2C(=O)[C@@H]3[C@H](C2=O)[C@@H]2C[C@H]3C(Br)C2Br)no1 (some centres undefined) | inconclusive: -1.71%
7 | CCN(CC)/C(=N/S(=O)(=O)c1ccc(C)cc1)c1ccccc1 | inactive: 106%
8 | COc1cc(O)c(C(CC(=O)N2CCCC2)c2ccc(N(C)C)cc2)c(OC)c1 (centres undefined) | inconclusive: 109%
9 | C/C(=N\NC(=O)COc1cccc(Cl)c1)c1ccc2c(c1)OCCO2 | inactive: 105%
10 | Cc1cc(C)c2cc(CNC3CCCC3)c(Cl)nc2c1 | inactive: 100%
11 | CCC(C)NC(=S)Nc1ccc2nc(N3CCN(CC)CC3)cc(C)c2c1 (centres undefined) | inconclusive: 105%
12 | COCCCNC(=S)Nc1c(C)cc(C)cc1C | inconclusive: 153%
13 | O=C(NCc1ccc(Cl)cc1Cl)C1CC(=O)N(Cc2ccccc2)C1 (centres undefined) | inconclusive: 77.4%
14 | Cc1nc(/C(N)=N/OC(=O)c2c(-c3ccccc3Cl)noc2C)cs1 | inconclusive: 107%
15 | O=C(CCCOc1ccc(Cl)cc1Cl)Nc1ccc(O)cc1C(=O)O | inconclusive: 104%
16 | CCOC1CCc2c(C)nc(N)nc2S1 (centres undefined) | inconclusive: 95.4%
17 | O=C1c2ccccc2NC(c2cccc(F)c2)N1Cc1ccco1 (centres undefined) | active: 31.3%
18 | CCOC(=O)CN(c1ccccn1)S(=O)(=O)c1ccc(OC)cc1 | inactive: 105%
19 | COc1ccc(NC(=O)Nc2ccc(F)c(F)c2)c(OC)c1 | inactive: 98.2%
20 | O=C(O)c1ccc(N/N=C/c2ccc(-c3ccccc3Cl)o2)cc1 | inconclusive: 135%
21 | CC12CC3CC(C)(C1)CC(Nc1nc(N4CCOCC4)nc4ccccc14)(C3)C2 | inconclusive: 100%
22 | CCc1ccc(OCC(=O)N(CC)CC)cc1 | inactive: 97.8%
23 | Cc1ccc2nc(-c3ccccc3)cc(C(=O)NCC3CCCO3)c2c1 (centres undefined) | inconclusive: 63.4%

Row | Structure (SMILES) | binding response (% of control)
24 | COC(=O)C(NC(C)=O)(Nc1cc(C)ccn1)C(F)(F)F (centres undefined) | inconclusive: 99.7%
25 | Nc1o[nH]c(=O)c1Cc1ccccc1 | inconclusive: 111%
26 | O=C(NCCCN1CCOCC1)c1cccc(S(=O)(=O)Nc2cc(Cl)ccc2Cl)c1 | inconclusive: 126%
27 | CSc1ccc(Cl)c(C(=O)NCc2ccco2)c1 | inactive: 103%
28 | CN(c1ccccc1)S(=O)(=O)c1cccc(C(=O)OCC(=O)NCCCN2CCCC2=O)c1 | inconclusive: 87.6%
29 | Cc1nc2ccccn2c1-c1ccnn1S(=O)(=O)c1ccc(F)cc1 | inconclusive: 109%
30 | COC(=O)C1=C(C(=O)OC)[C@@H]2Nc3ccccc3[C@@]23C[C@@H](C(=O)OC)N(C(=O)c2ccc(Br)cc2)C3=N1 | inconclusive: 88.9%
31 | Cc1ccc(S(=O)(=O)/N=C(/Nc2ccc3[nH]c(=O)[nH]c3c2)c2ccc(F)cc2)cc1 | active: 152% [activator]
32 | O=C(CNC(=O)C12CC3CC(CC(C3)C1)C2)N1CCN(S(=O)(=O)/C=C/c2ccccc2)CC1 | inactive: 99.7%
33 | COc1ccc2c(CC(=O)OCC(=O)c3ccccc3OC)coc2c1 | inactive: 98.8%
34 | CSc1ccccc1NC(=O)c1cc(-c2cccnc2)nc2ccc(Br)cc12 | inconclusive: 102%
35 | Cc1cc(C(=O)CNCc2ccco2)c(C)n1-c1ccc(F)cc1 | inactive: 108%
36 | CCOC(=O)N1CCN(C(=O)CN(c2ccccc2)S(C)(=O)=O)CC1 | inconclusive: 103%
37 | CCCn1c(N)c(NCCN2CCOCC2)c(=O)n(CC(=O)NCc2ccccc2)c1=O | inactive: 104%
38 | O=C(CCc1nnc(-c2ccccc2)o1)c1ccc(Cl)cc1 | inconclusive: 107%
39 | CCOC(=O)c1c(C)oc(C)c(C(=O)OCC)c1=O | inconclusive: 188%
40 | CC(C)C[C@H](NC(=O)c1[nH]cnc1C(=O)N[C@@H](C)C(=O)OC(C)(C)C)C(=O)OCc1ccccc1 | inconclusive: 65.6%
41 | COC(=O)Cc1c[nH]c2ccc(OCC(O)CNC(C)C)cc12 (centres undefined) | inactive: 99.5%
42 | O=C(c1cccc(S(=O)(=O)NCc2ccccc2)c1)N1CCCC1 | inconclusive: 85.2%
43 | CC1(C)CCCN(Cc2c(O)ccc3c(=O)c(-c4nc5ccccc5s4)c(N)oc23)C1 | inconclusive: 99.8%
44 | CC1(C)C2CCC1(CS(=O)(=O)NC1CCCC1)C(=O)C2 (centres undefined) | inactive: 101%
45 | Fc1ccc(Nc2nnns2)cc1 | inconclusive: 110%
46 | COc1ccc(C(=O)NCc2ccc3c(c2)CCO3)cc1 | inconclusive: 124%

Row | Structure (SMILES) | binding response (% of control)
47 | COc1cc(/C=N/NC(=O)c2cc(-c3cccs3)nc3ccccc23)ccc1O | inconclusive: 144%
48 | O=C(COc1ccccc1)N1CCN=C1SCc1cccc(F)c1 | inconclusive: 105%
49 | COc1cc(/C=C/C(=O)OCC(=O)Nc2ccc(NC(C)=O)cc2)cc(S(=O)(=O)N2CCc3ccccc32)c1OC | inconclusive: 102%
50 | COc1cc(C2c3sc(=O)[nH]c3SC3C(=O)N(c4ccc(C)cc4)C(=O)C32)ccc1O (centres undefined) | inconclusive: 55.3%
51 | O=C(Nc1ccnc(-c2ccncc2)n1)c1ccc(Cl)cc1 | inconclusive: 120%
52 | CCCn1c(SC(C(=O)Nc2cccc(OC)c2)c2ccccc2)nc2ccccc2c1=O (centres undefined) | inactive: 97.6%
53 | O=C(NN1CCCCC1)c1ccc(COc2ccc(Cl)cc2)cc1 | inactive: 86.8%
54 | Cc1cc(OCC(=O)N2CCOCC2)ccc1[N+](=O)[O-] | inconclusive: 108%
55 | O=C(Nc1ccccc1C(=O)NC(Cc1c[nH]c2ccccc12)C(=O)O)c1ccccc1 (centres undefined) | inconclusive: 145%
56 | C=CC(=O)NCCCc1cc(C(C)(C)C)c(O)c(C(C)(C)C)c1 | inactive: 106%
57 | Cc1nn(CC(=O)NNC(=O)c2ccccc2F)c([N+](=O)[O-])c1Br | inconclusive: 120%
58 | O=C(CCC(=O)NNc1nc2ccccc2c2nc(-c3ccccc3)nn12)NCCCN1CCCC1=O | inconclusive: 104%
59 | COc1ccc(C(=O)COc2ccccc2C#N)cc1 | inconclusive: 106%
60 | O=C(Nc1ccccn1)C(=O)N1CCCCC1 | inactive: 94.4%
61 | Cc1cc(C)cc(SCc2noc(C(=O)NCCCN3CCOCC3)c2C(=O)NCCCN2CCOCC2)c1 | inconclusive: 110%
62 | CC(CN1CCN(Cc2ccccc2)CC1)OC(=O)c1ccco1 (centres undefined) | inconclusive: 109%
63 | O=C(CS(=O)(=O)c1ccccc1)Nc1ccc(Br)cn1 | inactive: 103%
64 | CCc1nnc(NC(=O)c2nn(-c3ccccc3)nc2C)s1 | inconclusive: 148%
65 | CCOC(=O)c1c(-c2ccccc2)csc1NC(=O)/C(C#N)=C/c1ccc(O)c(OC)c1 | inactive: 94.6%
66 | CCc1nc(SCC(=O)Nc2nnc(CC(C)C)s2)n[nH]1 | inconclusive: 148%
67 | COC(=O)C1SCC2C(=O)N(Cc3ccc(Cl)c(Cl)c3)CC(=O)N21 (centres undefined) | inconclusive: 70.4%
68 | CC(C(=O)Nc1ccc2c(c1)OCCO2)N(c1ccccc1)S(C)(=O)=O (centres undefined) | inconclusive: 112%
69 | O=C(c1cc(S(=O)(=O)N2CCOCC2)c(Cl)cc1Cl)N1CCCCC1CO (centres undefined) | inconclusive: 80.6%

Row | Structure (SMILES) | binding response (% of control)
70 | Cc1ccc2c(c1)c1c(n2CC(O)CN2CCC(C)CC2)CCCC1 (centres undefined) | inconclusive: 407%
71 | CC(NC(=O)c1ccco1)C(=O)OC(C)C(=O)NCc1ccccc1 (centres undefined) | inconclusive: 89.9%
72 | CCn1c(SCC(=O)Nc2nc3ccc(C)cc3s2)nc2c(c1=O)SC(C)C2 (centres undefined) | active: 158% [activator]
73 | CN(C)CCCNc1nc(N)c([N+](=O)[O-])c(NCCO)n1 | inconclusive: -28.4%
74 | CCc1nnc(NC(=O)c2cc(S(=O)(=O)N3CCN(c4ccccc4)CC3)ccc2Cl)s1 | inactive: 100%
75 | O=C(Nc1ccccc1NC(=O)c1ccco1)c1ccco1 | active: -19.2%
76 | COc1ccc(NC2CC(=O)N(c3cc([N+](=O)[O-])ccc3C)C2=O)cc1 (centres undefined) | inactive: 99.3%
77 | COc1ccc(C2(CNS(=O)(=O)c3ccc(C)cc3)CCOCC2)cc1 | inconclusive: 92.2%
78 | Cc1nnc2n1CCCCC2 | inconclusive: 111%
79 | CCN1CCN(c2oc(COc3ccc(Cl)cc3)nc2C#N)CC1 | inconclusive: 60.8%
80 | O=c1[nH]c(CSc2ccccc2)nc2c1oc1ccccc12 | inconclusive: 107%
81 | Cc1nn(C)c(C(=O)NNC(=O)Nc2cccc(C(F)(F)F)c2)c1Cl | inactive: 103%
82 | O=C(Nc1ccc(F)cc1)c1c(Cl)nc2ccccn12 | inconclusive: 99.1%
83 | Nc1c(C(=O)c2ccc(Cl)cc2)sc2nsc(SCCN3CCOCC3)c12 | inconclusive: 103%
84 | CC(=O)c1ccc(NC(=O)C2C3C=CC(C3=C(c3ccccc3)c3ccccc3)C2C(=O)O)cc1 (centres undefined) | inactive: 93.2%
85 | Cc1cc2c(cc1C)/C(=N/NC(=O)c1ccccn1)CCC2 | inconclusive: 96.7%
86 | O=C(Nc1ccc(S(=O)(=O)Nc2ncccn2)cc1)c1cccc(S(=O)(=O)N2CCOCC2)c1 | inconclusive: 257%
87 | Cc1ccccc1N(CC(=O)Nc1ccccc1C(=O)NCc1ccco1)S(=O)(=O)c1ccccc1 | inactive: 97.4%
88 | Clc1ccc(-c2n[nH]c3c2Cc2ccccc2-3)cc1Cl | inconclusive: 111%
89 | Nc1c(Cl)ncnc1NCCO | inconclusive: 96.1%

Four records picked at random from those above:
Row | Structure (SMILES) | binding response (% of control)
83 | Nc1c(C(=O)c2ccc(Cl)cc2)sc2nsc(SCCN3CCOCC3)c12 | inconclusive: 103%
78 | Cc1nnc2n1CCCCC2 | inconclusive: 111%
70 | Cc1ccc2c(c1)c1c(n2CC(O)CN2CCC(C)CC2)CCCC1 (centres undefined) | inconclusive: 407%
89 | Nc1c(Cl)ncnc1NCCO | inconclusive: 96.1%
